These are yes or no findings as the source states them, for the method shown. Binding seen in cells or lysates may run through a third protein. Some entries that bind do so weakly or less than the wild type.
Biological target: T1, 14-3-3γ (human (endogenous in HK-2, UOK109 and UOK120)) (UniProt P61981)
T1 sequence: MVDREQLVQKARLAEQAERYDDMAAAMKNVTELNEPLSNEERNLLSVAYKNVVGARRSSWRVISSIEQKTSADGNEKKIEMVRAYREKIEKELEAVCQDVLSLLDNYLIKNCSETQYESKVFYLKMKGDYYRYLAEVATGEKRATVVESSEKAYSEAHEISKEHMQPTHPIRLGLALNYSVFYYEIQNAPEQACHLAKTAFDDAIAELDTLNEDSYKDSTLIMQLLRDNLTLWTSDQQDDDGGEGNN
Assay: co-IP; endogenous proteins of HK-2, UOK109 and UOK120 cells; an irrelevant IgG as negative control; which antibody precipitated is not told

Amino acid sequences for entries named in this document (tags omitted).
UniProt P19532: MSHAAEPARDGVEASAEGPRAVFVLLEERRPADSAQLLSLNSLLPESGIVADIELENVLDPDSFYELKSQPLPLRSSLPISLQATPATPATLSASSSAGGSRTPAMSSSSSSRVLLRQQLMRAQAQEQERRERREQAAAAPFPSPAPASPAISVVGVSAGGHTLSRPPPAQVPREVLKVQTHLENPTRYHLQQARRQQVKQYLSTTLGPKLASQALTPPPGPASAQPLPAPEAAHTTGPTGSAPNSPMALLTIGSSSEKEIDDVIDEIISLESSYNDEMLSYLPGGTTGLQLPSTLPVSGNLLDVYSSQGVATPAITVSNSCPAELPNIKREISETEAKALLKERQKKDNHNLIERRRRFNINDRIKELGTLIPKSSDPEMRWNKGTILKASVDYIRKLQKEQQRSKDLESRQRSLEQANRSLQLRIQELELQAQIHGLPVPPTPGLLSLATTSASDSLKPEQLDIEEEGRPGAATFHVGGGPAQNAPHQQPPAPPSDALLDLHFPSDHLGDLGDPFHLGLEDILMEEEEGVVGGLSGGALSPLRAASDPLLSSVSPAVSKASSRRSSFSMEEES

binding: binds
Substance: wild-type TFE3 (Transcription Factor Binding to IGHM Enhancer 3) (from UniProt P19532 1-575)

— publication PMC6408813
